Experimental data published in US20110076262A1.

Target: Cynomolgus FGF19 (cynomolgus monkey)
Test: Western blot probed with Ch1A6: cynomolgus liver lysate (immunoprecipitated, SDS-PAGE) and recombinant cynomolgus FGF19 in increasing amount (100 ng or 200 ng according to the text)

binding: binds
B1: chimeric anti-FGF19 antibody 1A6 (antibody, V domains shown)
VH: QVQLKQSGPGLVQPSQSLSITCTVSGFSLTTYGVHWVRQSPGKGLEWLGVIWPGGGTDYNAAFISRLSITKDNSKSQVFFKMNSLLANDTAIYFCVRKEYANLYAMDYWGQGTLLTVSA
VL: DIKMTQSPSSMYASLGERVTIPCKASQDINSFLSWFQQKPGKSPKTLIYRANRLVDGVPSRFSGSGSGQDYSLTISSLEYEDMGIYYCLQYDEFPLTFGAGTKVEIKR

Results are given in words; binding and its absence hold for the method and conditions named. Binding can be weak; no strength is given.
